This is one part of the list.
Compound: COc1ccc(Cn2ccc3cc(C)c(C(=O)NO)cc32)cc1
Assay: dose-dependent thermal stabilisation call (2D-TPP, DLPTP, 10% FDR) (binary (1 = stabilised)); higher = stabilised by the compound
Settings: system: HL-60 intact cells; concentration range 0.04-10 µM
Experimental: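 2D thermal proteome profiling in intact HL-60 cells treated with BRD-3811 (0, 0.04, 0.29, 2, 10 uM) for 90 min at 37 C, then heated 3 min at one of 12 temperatures (42-63.9 C). Soluble protein was quantified by TMT10 MS. The value is the DLPTP call of the paper: dose-dependent thermal stabilisation over all temperatures at 10% FDR (F-test of a dose-response against a flat model); one experiment, one call per tested protein.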

By UniProt entry, the sequences of proteins in these tests, tags left out. Where a name states a change or a piece, a line headed by the entry shows the natural chain unless it says otherwise.
UniProt Q8N2U9: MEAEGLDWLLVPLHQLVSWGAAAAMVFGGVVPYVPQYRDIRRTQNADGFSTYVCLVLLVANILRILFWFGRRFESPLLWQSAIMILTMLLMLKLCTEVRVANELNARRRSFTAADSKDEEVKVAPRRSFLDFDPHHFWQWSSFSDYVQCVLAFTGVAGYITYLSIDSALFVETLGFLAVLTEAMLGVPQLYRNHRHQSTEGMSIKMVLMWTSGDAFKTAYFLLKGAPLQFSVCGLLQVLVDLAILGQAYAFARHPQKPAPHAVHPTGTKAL
UniProt Q9P0J1: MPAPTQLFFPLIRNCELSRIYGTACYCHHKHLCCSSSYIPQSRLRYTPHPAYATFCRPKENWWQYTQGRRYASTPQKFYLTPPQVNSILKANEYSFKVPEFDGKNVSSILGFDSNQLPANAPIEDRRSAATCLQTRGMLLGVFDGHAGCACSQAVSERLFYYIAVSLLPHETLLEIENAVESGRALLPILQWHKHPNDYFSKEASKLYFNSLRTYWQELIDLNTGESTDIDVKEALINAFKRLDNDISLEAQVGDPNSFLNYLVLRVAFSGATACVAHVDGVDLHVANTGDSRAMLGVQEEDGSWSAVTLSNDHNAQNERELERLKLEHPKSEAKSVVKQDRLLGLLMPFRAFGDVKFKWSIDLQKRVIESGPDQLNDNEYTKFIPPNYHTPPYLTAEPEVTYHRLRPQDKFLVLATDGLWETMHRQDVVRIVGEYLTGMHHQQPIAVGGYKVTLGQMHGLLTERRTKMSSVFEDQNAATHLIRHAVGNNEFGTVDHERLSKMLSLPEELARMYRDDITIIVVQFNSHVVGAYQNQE
UniProt P35998: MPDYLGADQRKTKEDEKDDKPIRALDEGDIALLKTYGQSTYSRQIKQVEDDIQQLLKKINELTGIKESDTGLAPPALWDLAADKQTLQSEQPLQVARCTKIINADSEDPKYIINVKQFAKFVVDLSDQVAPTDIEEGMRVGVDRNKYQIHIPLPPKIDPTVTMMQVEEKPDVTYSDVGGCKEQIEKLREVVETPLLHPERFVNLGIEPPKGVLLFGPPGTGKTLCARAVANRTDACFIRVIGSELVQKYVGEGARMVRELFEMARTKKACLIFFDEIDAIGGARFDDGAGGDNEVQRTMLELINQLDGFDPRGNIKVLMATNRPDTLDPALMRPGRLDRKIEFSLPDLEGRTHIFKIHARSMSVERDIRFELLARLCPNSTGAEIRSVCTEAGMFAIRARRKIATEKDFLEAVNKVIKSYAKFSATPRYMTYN
UniProt O00231, whole entry: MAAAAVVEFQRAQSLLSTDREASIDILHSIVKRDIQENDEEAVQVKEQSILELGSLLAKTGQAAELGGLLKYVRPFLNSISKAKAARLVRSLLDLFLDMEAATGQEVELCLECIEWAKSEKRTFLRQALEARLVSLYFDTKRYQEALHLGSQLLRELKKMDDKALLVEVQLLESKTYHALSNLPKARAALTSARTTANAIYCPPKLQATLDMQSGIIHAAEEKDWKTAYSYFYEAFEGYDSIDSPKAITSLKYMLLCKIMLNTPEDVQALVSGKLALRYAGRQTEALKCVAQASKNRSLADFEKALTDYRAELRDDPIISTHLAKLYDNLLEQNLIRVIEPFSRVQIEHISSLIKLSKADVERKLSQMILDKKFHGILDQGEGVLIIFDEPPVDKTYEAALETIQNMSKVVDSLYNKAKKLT
UniProt P23219, whole entry: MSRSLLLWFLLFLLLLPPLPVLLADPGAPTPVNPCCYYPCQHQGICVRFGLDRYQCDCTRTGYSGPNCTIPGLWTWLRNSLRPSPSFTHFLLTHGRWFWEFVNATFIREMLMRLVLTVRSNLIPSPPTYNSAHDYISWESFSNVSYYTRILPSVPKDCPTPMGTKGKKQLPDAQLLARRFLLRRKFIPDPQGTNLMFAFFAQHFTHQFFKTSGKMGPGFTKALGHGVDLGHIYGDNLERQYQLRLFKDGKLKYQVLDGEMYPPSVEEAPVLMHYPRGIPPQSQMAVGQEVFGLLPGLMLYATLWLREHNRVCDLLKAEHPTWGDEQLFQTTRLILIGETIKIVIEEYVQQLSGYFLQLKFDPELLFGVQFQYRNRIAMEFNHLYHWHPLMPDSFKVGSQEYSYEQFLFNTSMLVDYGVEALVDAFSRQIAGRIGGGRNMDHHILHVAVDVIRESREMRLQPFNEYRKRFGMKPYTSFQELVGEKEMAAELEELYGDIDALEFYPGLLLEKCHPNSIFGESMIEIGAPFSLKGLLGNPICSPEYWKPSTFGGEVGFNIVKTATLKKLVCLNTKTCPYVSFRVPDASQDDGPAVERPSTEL
UniProt P49005: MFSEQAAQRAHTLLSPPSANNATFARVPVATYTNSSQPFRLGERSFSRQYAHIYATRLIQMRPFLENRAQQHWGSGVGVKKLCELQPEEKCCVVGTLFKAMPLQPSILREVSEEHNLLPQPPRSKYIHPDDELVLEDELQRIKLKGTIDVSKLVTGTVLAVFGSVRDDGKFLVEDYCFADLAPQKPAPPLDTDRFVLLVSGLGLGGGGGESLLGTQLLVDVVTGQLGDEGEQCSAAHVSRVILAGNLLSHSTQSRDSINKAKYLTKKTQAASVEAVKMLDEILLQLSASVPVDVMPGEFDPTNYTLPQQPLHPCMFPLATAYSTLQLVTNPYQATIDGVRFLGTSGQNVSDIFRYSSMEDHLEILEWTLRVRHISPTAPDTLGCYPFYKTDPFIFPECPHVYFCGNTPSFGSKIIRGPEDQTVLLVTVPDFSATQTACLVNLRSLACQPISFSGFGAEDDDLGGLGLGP
UniProt P50336: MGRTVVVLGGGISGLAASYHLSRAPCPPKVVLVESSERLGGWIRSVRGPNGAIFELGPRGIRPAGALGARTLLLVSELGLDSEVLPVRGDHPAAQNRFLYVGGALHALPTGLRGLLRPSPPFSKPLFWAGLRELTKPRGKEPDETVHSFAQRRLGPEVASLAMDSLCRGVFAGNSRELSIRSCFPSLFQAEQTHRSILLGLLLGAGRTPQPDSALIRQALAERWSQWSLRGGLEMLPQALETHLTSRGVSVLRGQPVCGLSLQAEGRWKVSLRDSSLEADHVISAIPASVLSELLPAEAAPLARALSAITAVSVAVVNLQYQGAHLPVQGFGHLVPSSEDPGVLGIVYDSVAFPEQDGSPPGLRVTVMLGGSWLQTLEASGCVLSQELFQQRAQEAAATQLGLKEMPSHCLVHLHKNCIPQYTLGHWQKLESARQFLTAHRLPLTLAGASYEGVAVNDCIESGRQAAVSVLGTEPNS
UniProt Q14289, whole entry, looked up: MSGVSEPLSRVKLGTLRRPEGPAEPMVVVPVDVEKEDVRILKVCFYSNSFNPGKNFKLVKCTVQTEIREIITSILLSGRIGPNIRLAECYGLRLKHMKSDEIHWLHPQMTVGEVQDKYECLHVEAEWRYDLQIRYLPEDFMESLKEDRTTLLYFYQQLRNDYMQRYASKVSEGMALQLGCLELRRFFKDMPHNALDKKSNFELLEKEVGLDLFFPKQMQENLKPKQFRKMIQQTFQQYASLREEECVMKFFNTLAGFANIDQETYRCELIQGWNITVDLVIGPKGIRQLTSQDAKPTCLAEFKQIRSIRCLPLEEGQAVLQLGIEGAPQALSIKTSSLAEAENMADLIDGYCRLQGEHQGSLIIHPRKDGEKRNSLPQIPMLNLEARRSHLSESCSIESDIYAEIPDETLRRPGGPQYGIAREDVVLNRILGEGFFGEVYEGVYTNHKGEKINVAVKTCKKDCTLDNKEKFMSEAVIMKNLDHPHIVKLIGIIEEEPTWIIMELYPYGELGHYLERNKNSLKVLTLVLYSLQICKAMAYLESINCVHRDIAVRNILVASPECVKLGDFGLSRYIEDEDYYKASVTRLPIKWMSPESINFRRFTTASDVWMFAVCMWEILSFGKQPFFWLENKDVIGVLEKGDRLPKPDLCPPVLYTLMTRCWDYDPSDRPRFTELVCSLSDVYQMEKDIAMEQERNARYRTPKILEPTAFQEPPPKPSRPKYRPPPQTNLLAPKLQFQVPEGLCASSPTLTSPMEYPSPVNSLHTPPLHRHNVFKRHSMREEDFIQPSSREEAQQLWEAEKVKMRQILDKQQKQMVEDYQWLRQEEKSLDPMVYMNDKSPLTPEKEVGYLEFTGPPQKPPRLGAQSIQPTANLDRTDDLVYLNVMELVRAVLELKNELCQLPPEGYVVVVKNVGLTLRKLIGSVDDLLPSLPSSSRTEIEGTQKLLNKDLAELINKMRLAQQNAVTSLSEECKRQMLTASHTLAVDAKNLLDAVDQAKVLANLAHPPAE
UniProt Q15172: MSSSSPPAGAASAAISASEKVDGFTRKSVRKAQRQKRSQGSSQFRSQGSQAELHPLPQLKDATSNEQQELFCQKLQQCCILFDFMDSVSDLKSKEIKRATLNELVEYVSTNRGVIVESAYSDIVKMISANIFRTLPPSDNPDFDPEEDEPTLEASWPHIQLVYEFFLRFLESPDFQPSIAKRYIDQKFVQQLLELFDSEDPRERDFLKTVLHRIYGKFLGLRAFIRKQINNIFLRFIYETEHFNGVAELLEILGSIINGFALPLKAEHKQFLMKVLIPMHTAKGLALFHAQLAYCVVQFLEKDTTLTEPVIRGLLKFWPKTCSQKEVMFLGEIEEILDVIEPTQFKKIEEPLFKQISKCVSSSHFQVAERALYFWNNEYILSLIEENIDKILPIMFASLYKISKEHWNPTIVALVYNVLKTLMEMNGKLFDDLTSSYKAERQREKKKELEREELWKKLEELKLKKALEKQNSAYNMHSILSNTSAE
UniProt Q99575: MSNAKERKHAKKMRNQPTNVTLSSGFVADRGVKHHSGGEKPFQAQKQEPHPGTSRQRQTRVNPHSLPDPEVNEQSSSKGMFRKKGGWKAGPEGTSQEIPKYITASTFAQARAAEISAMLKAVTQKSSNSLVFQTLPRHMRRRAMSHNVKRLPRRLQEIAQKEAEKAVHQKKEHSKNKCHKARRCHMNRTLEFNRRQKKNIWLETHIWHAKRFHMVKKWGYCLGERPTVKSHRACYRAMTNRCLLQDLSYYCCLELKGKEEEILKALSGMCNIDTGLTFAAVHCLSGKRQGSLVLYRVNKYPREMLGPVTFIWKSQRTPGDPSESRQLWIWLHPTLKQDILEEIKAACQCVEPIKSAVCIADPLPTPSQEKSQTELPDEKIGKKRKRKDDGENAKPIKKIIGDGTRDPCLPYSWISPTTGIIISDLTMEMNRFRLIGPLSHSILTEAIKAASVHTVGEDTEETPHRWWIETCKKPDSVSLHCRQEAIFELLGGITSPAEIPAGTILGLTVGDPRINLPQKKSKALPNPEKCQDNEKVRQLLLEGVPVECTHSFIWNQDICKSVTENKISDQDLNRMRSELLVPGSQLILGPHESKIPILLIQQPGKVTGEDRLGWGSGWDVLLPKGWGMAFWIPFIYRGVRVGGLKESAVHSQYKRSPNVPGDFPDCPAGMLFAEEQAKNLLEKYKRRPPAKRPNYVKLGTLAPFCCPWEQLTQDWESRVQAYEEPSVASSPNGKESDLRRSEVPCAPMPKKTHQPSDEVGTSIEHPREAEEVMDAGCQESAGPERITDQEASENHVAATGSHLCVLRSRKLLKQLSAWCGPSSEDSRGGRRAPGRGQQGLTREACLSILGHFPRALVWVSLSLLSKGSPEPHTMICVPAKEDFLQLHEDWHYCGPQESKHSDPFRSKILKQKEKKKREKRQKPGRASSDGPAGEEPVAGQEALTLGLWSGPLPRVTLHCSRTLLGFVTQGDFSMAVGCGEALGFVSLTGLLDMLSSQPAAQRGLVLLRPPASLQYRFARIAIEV
UniProt Q9P215: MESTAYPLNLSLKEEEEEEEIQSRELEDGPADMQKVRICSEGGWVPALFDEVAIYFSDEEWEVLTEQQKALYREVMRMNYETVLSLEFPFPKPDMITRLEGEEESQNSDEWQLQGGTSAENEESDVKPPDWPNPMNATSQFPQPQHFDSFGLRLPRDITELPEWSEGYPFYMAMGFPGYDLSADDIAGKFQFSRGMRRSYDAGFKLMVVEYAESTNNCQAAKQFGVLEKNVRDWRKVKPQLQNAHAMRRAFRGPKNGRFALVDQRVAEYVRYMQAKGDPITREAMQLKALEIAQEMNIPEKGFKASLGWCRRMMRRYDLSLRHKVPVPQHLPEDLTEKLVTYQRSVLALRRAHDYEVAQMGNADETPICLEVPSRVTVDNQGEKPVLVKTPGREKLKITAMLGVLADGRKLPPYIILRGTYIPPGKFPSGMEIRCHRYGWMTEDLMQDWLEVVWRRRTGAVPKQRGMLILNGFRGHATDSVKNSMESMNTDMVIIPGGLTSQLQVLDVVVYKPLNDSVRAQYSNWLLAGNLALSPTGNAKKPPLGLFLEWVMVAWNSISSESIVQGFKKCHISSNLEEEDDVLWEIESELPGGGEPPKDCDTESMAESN
UniProt P25789: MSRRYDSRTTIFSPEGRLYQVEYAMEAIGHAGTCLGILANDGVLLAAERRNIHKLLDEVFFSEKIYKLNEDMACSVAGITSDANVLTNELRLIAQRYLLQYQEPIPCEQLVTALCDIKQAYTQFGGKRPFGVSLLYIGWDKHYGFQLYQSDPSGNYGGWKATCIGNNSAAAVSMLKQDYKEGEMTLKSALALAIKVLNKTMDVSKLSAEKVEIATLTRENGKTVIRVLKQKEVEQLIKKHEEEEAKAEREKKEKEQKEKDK

Row | Target | dose-dependent thermal stabilisation call
1 | PPP3CA (UniProt Q08209) | inactive: 0
2 | PQLC1 (UniProt Q8N2U9) | inactive: 0
3 | PPM2C (UniProt Q9P0J1) | inactive: 0
4 | PPM1H (UniProt Q9ULR3) | inactive: 0
5 | PSMC2 (UniProt P35998) | inactive: 0
6 | PSMD11 (UniProt O00231) | inactive: 0
7 | PTGS1 (UniProt P23219) | inactive: 0
8 | POLR2K (UniProt P53803) | inactive: 0
9 | PMVK (UniProt Q15126) | inactive: 0
10 | POLD2 (UniProt P49005) | inactive: 0
11 | POLR3B (UniProt Q9NW08) | inactive: 0
12 | PPM1E (UniProt Q8WY54) | inactive: 0
13 | PPP1R13L (UniProt Q8WUF5) | inactive: 0
14 | POU2F1 (UniProt P14859) | inactive: 0
15 | PPOX (UniProt P50336) | inactive: 0
16 | PRPS2 (UniProt P11908) | active: 1
17 | PPIL2 (UniProt Q13356) | inactive: 0
18 | POLR2A (UniProt P24928) | inactive: 0

Single values from the entries so far:
Value for PRPS2 (UniProt P11908) under dose-dependent thermal stabilisation call: active: 1
Value for POLR3B (UniProt Q9NW08) under dose-dependent thermal stabilisation call: inactive: 0

Later entries:

Row | Target | dose-dependent thermal stabilisation call
19 | POLE4 (UniProt Q9NR33) | inactive: 0
20 | PTK2B (UniProt Q14289) | active: 1
21 | PPP3CB (UniProt P16298) | inactive: 0
22 | PM20D2 (UniProt Q8IYS1) | inactive: 0
23 | PTP4A2 (UniProt Q12974) | inactive: 0
24 | PSMG4 (UniProt Q5JS54) | inactive: 0
25 | PPP2R5A (UniProt Q15172) | inactive: 0
26 | PRPS1 (UniProt P60891) | inactive: 0
27 | POFUT2 (UniProt Q9Y2G5) | inactive: 0
28 | POP1 (UniProt Q99575) | inactive: 0
29 | PPP1R8 (UniProt Q12972) | inactive: 0
30 | PPIE (UniProt Q9UNP9) | inactive: 0
31 | POGK (UniProt Q9P215) | inactive: 0
32 | PTPN2 (UniProt P17706) | inactive: 0
33 | PSMA4 (UniProt P25789) | inactive: 0
34 | PRKCI (UniProt P41743) | inactive: 0
35 | PTPLAD2 (UniProt Q5VWC8) | inactive: 0
36 | PLXNB2 (UniProt O15031) | inactive: 0

Reference: the supplement of paper PMC7666118
